Reference: EP0406111A1, “Substituted arylamines and heteroarylamines, process for their preparation and pharmaceutical composition containing them” (SOCIETE DE CONSEILS DE […] D'APPLICATIONS SCIENTIFIQUES …, priority 1989, dated 1991)

Molecular target: récepteur de la PCP
Assay: Competition binding at the (3H)TCP sites on rat brain homogenates (Example 36)
Settings: 1 nM (3H)TCP, 30 min at 25°C
Excerpt: Exemple 36 : Affinité des composés pour les sites de liaison de la (³H)TCP sur les homogénats de cerveaux de rats.
Dans cet essai on mesure les affinités des composés pour le récepteur de la PCP par des expériences de compétition sur des homogénats de cerveaux de rats. Le ligand radioactif utilisé est la (³H)TCP à une activité spécifique de 62 Ci/mmol (Service des Molécules Marquées, CEA Saclay France).
Les cerveaux de rats (sans le cervelet et le tronc cérébral) sont homogénéisés à l'ultra turax dans 20 volumes de tampon Hepes-Tris 50 mM, pH 7,7. Après centrifugation pendant 30 min à 15000 g le culot est repris dans le même volume de tampon et recentrifugé dans les mêmes conditions. Le culot final est repris dans du tampon Hepes-Tris 50 mM, pH 7,7 de façon à obtenir une concentration en protéine de 6 à 8 mg/ml.
Les expériences de compétition sont réalisées en incubant pendant 30 min les membranes (concentration finale en protéine : 0,6 à 0,8 mg/ml) en milieu tampon 5 mM Hepes-Tris, pH 7,7 à 25°C, en présence d'une concentration fixe de ligand tritié (1 nM)et de concentrations croissantes de composés à tester. Trois échantillons de 600 µL sont ensuite filtrés sur filtres de fibres de verre GF/B prétraités par du PEI (polyéthylénimine) à 0,1%. […]

## CN1Cc2c(N)cccc2C(c2ccccc2)C1 (stereo not shown) [Nomifensine, amino-8 méthyl-2 phényl-4 tétrahydro- 1,2,3,4 isoquinoline, reference compound]
  IC50: 95 µM
